Experimental data: PubChem BioAssay AID1671195 (Yale University, 2021)

Aim: 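Knockdowns that increase or decrease uptake of fluorescent LDL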 (primary screen)
Cells: human Huh7 hepatoma cells
Reagent: siRNA pool against human genes, 18 nM
Duration: about 2 to 2.5 days of knockdown, then 8 h LDL uptake
Challenge: DiI-labelled LDL at 30 µg/ml for 8 h, in lipoprotein-deficient serum medium
Read-out: 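Fluorescent LDL signal imaged in cells, scaled to the plate median, robust z-score for each replicate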
Direction: robust z-score: higher = more LDL uptake after knockdown
Hit rule: 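a gene counts as active if at least two replicate z-scores exceed ±2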
Shown is an unselected part of about 22,000 deposited reagents. About 1,510 of all reagents (6.9%) were called active. 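Active includes knockdowns raising or lowering LDL uptake; positive z-scores mean more uptake, negative mean less.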 Unmarked entries are inactive. The numbers tell different reagents against one gene apart.

target	reagent no.	robust z-score, replicate 1	robust z-score, replicate 2	robust z-score, replicate 3
TNFRSF19 (TNF receptor superfamily member 19)	1	0.108	-0.132	-0.168
PTGIR (prostaglandin I2 receptor)	1	-1.22	-1.5	-1.28
UNQ5810 (retired record)	1	0.0414	-0.638	-0.416
UPK2 (uroplakin 2)	1	-1.08	-0.429	0.28
APBA2 (amyloid beta precursor protein binding family A member 2)	1	0.429	0.382	0.607
C8orf58 (chromosome 8 open reading frame 58)	1	0.638	1.25	0.63
LOC441105 (retired record)	1	-1.1	-1.31	-1.45
TXNL4A (thioredoxin like 4A)	1	2.23 (active)	1.94	2.28
C4orf17 (chromosome 4 open reading frame 17)	1	-1.08	-1.34	-1.13
BRI3BP (BRI3 binding protein)	1	0.293	0.653	-0.594
RGS4 (regulator of G protein signaling 4)	1	3.87 (active)	4.17	5.65
TBXAS1 (thromboxane A synthase 1)	1	-1.08	-1.16	-1.03
ATP6V0E2-AS1 (ATP6V0E2 antisense RNA 1)	1	-0.0113	0.669	0.459
LINC01620 (long independently transcribed non-coding RNA 1620)	1	2.33 (active)	3.73	2.75
LOC442374 (retired record)	1	-0.343	-0.123	-0.299
LOC441464 (retired record)	1	0.0902	-0.0958	0.0364
RPS26 (ribosomal protein S26)	1	-0.675	0.122	-0.281
MTMR14 (myotubularin related protein 14)	1	0.37	-0.43	0.12
EVI5 (ecotropic viral integration site 5)	1	-0.722	-0.0953	-0.144
NIPSNAP2 (nipsnap homolog 2)	1	-0.273	-0.618	-0.921
TRMT1 (tRNA methyltransferase 1)	1	-0.316	-0.375	-1.32
AMOTL1 (angiomotin like 1)	1	0.777	0.155	0.0582
TSPAN32 (tetraspanin 32)	1	0.308	0.32	-0.0622
PPP1R8 (protein phosphatase 1 regulatory subunit 8)	1	-1.19	-0.124	0.267
CDC14A (cell division cycle 14A)	1	-1.98	-1.99	-1.86
INTS2 (integrator complex subunit 2)	1	1.29	1.04	-0.0755
VPS26A (VPS26 retromer complex component A)	1	0.357	-0.0667	0.191
LOC391092 (PRAME family member 17 pseudogene)	1	0.864	0.804	0.915
ZNF138 (zinc finger protein 138)	1	0.659	-0.0265	0.232
PMCHL1 (pro-melanin concentrating hormone like 1 (pseudogene))	1	-0.278	0.167	0.426
MORF4L2 (mortality factor 4 like 2)	1	-0.757	-0.489	1.65
TRDMT1 (tRNA aspartic acid methyltransferase 1)	1	-0.337	1.38	-0.215
SRRD (SRR1 domain containing)	1	-0.494	0.102	-0.495
MPRIP (myosin phosphatase Rho interacting protein)	1	1.57	0.471	1.77
POTEKP (POTE ankyrin domain family member K, pseudogene)	1	-1.9	0.459	0.421
ZSCAN29 (zinc finger and SCAN domain containing 29)	1	-0.702	-0.591	-0.351
LINC03234 (long independently transcribed non-coding RNA 3234)	1	1.84	0.97	1.26
ADD1 (adducin 1)	1	-0.101	-0.545	-0.886
AKR1D1 (aldo-keto reductase family 1 member D1)	1	-0.0824	0.421	0.0279
LOC285889	1	-0.659	-0.296	-0.335
LOC440458 (retired record)	1	-0.516	-0.697	-0.571
UQCC1 (ubiquinol-cytochrome c reductase complex assembly factor 1)	1	0.929	-0.729	0.268
ZSWIM8 (zinc finger SWIM-type containing 8)	1	1.66	1.21	1.08
ZSWIM8 (zinc finger SWIM-type containing 8)	2	0.647	-1.89	0.341

Continued (5 carried over from the part before).
target	reagent no.	robust z-score, replicate 1	robust z-score, replicate 2	robust z-score, replicate 3
LOC285889	1	-0.659	-0.296	-0.335
LOC440458 (retired record)	1	-0.516	-0.697	-0.571
UQCC1 (ubiquinol-cytochrome c reductase complex assembly factor 1)	1	0.929	-0.729	0.268
ZSWIM8 (zinc finger SWIM-type containing 8)	1	1.66	1.21	1.08
ZSWIM8 (zinc finger SWIM-type containing 8)	2	0.647	-1.89	0.341
FBXW7 (F-box and WD repeat domain containing 7)	1	1.23	1.06	1.44
PIAS1 (protein inhibitor of activated STAT 1)	1	1.48	1.35	1.33
ABHD2 (abhydrolase domain containing 2, acylglycerol lipase)	1	-0.0223	-0.338	-0.0234
BTK (Bruton tyrosine kinase)	1	-0.574	-1.49	-1.23
LOC400201 (retired record)	1	2.09 (active)	3.18	2.73
DHRS1 (dehydrogenase/reductase 1)	1	0.664	0.328	0.367
FRG2DP (FSHD region gene 2 family member D, pseudogene)	1	-1.06	-0.816	-0.952
CPAP (centrosome assembly and centriole elongation protein)	1	1.15	-1.13	0.366
AVPR1B (arginine vasopressin receptor 1B)	1	2.22	0.0385	1.72
RPL21P62 (ribosomal protein L21 pseudogene 62)	1	-0.427	-0.0481	-0.123
CYB5R3 (cytochrome b5 reductase 3)	1	-1.63	-0.939	-1.67
RAB36 (RAB36, member RAS oncogene family)	1	-0.943	-1.54	-1.25
GUCY1A1 (guanylate cyclase 1 soluble subunit alpha 1)	1	-1.17	0.352	-0.339
TYMP (thymidine phosphorylase)	1	-1.19	1.14	-0.893
TIMP3 (TIMP metallopeptidase inhibitor 3)	1	-1.01	-0.528	-0.835
LOC100288496	1	0.949	0.229	0.251
LOC392173 (retired record)	1	1.24	1.29	1.39
RNF31 (ring finger protein 31)	1	0.442	0.137	0.268
OR7A5 (olfactory receptor family 7 subfamily A member 5)	1	0.162	1.06	-1.8
LOC442198 (retired record)	1	0.0568	0.885	0.584
IGFBP5 (insulin like growth factor binding protein 5)	1	-0.123	0.00873	0.211
USP7 (ubiquitin specific peptidase 7)	1	-0.786	-0.644	-0.331
AGT (angiotensinogen)	1	-0.205	0.415	-0.379
SWAP70 (switching B cell complex subunit SWAP70)	1	-0.727	-0.0132	-0.584
